The test system of series [1] is MBP-GmSop20CACT (Glycine max). The series is described as follows: EMSA. Conditions: poly(dI-dC), 5x buffer: 100 mM HEPES pH 7.4, 250 mM KCl, 10 mM MgCl2, 2.5 mM EDTA, 100 ng/uL BSA, 1% NP-40, 50% glycerol, poly(dI-dC) 0.1 ug/uL, 250-500 ng protein, recombinant protein. Background: A gel shift assay detects complexes by their altered migration in electrophoresis.
For series [2], the system named is MBP-GmSop20C (Glycine max). Put plainly: EMSA. Conditions: poly(dI-dC), 5x buffer: 100 mM HEPES pH 7.4, 250 mM KCl, 10 mM MgCl2, 2.5 mM EDTA, 100 ng/uL BSA, 1% NP-40, 50% glycerol, poly(dI-dC) 0.1 ug/uL, 250-500 ng protein, recombinant protein.

This note sets out measurements from article PMC12520551.

The exact form of at least one protein or probe is not confirmed.

With “GCTCACACTATGAGACAAACGAGTA (double strand) [GmSWEET10a/b promoter probe (GmSop20-Biotin)]”, the binding result in series [1] and in series [2] was “binds” throughout.
